Results deposited as PubChem BioAssay AID504744 (Drosophila RNAi Screening Center, 2011).
Purpose: 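Identify dsRNAs that increase or decrease phospho-dAkt after insulin treatment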 (primary screen). Cell system: Drosophila Kc167 cells. Knock-down reagent: long dsRNA against Drosophila genes, 250 ng dsRNA per well of a 384-well plate. Time to read-out: 3 days of knock-down, then overnight serum-free starvation before stimulation. Conditions: bovine insulin at 387 nM for 10 minutes after 12 h without serum. Read-out: 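Per-well phospho-dAkt level from an in-cell fluorescent antibody stain, divided by a DNA-dye signal; log2 residuals turned into z-scores that take cell number into account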. Call rule: 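Hit in the insulin screen when the two-replicate mean z-score is more extreme than plus or minus 2.5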.
The deposit covers about 23,000 reagents; below is a random part of those with a known target gene and a result. In the full data, 98 (0.43%) were called active. 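Only hit calls are given; the phospho-dAkt signals, z-scores and hit direction were not deposited.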 The numbers tell different reagents against one gene apart. Names joined by + are all predicted targets of the reagent. Reagent sequences are not shown.

Oat (GeneID 40145) — outcome: inactive
NT5E-2 (GeneID 246458) — outcome: inactive
Stt3A (GeneID 33082) — outcome: inactive
CG14711 + Zaf1 — outcome: inactive
Aldh7A1 (GeneID 40097) — outcome: inactive
CG30154 (GeneID 246487) — outcome: inactive
Noc2 (GeneID 35386) — outcome: inactive
RasGAP1 (GeneID 39158) — outcome: inactive
Rchy1 (GeneID 33901) — outcome: inactive
BomS4 (GeneID 37101) — outcome: inactive
Aprt (GeneID 48224) — outcome: inactive
CG13488 (GeneID 37496) — outcome: inactive
Agxt (GeneID 31587) — outcome: inactive
CG5866 (GeneID 42097) — outcome: inactive
CG34195 (GeneID 37018) — outcome: inactive
MKP-4 (GeneID 32963) — outcome: inactive
ECSIT (GeneID 40732) — outcome: inactive
pins (GeneID 53569) — outcome: inactive
Sema2b (GeneID 246538) #1 — outcome: inactive
Sema2b (GeneID 246538) #2 — outcome: inactive
Sema2b (GeneID 246538) #3 — outcome: inactive
Def (GeneID 36047) — outcome: inactive
CG31019 (GeneID 318558) — outcome: inactive
CG1074 (GeneID 40564) — outcome: inactive
VhaM9.7-c (GeneID 38503) — outcome: inactive
gol (GeneID 38006) — outcome: inactive
dmpd (GeneID 36061) — outcome: inactive
Cp16 (GeneID 39001) — outcome: inactive
CG30377 (GeneID 50252) #1 — outcome: inactive
CG30377 (GeneID 50252) #2 — outcome: inactive
CG14151 (GeneID 39201) — outcome: inactive
TfIIEalpha (GeneID 39313) — outcome: inactive
Slip1 (GeneID 43809) — outcome: inactive
Con (GeneID 38590) — outcome: inactive
Ir75a (GeneID 39982) — outcome: inactive
AlaRS (GeneID 34156) — outcome: inactive
Rpn11 (GeneID 33738) — outcome: inactive
CG31678 (GeneID 35327) #1 — outcome: inactive
CG31678 (GeneID 35327) #2 — outcome: inactive
CG5767 (GeneID 37055) — outcome: inactive
Eip75B (GeneID 39999) — outcome: inactive
CG31752 (GeneID 35143) — outcome: inactive
Trf2 (GeneID 31773) — outcome: inactive
CG30127 (retired record) (GeneID 246473) #1 — outcome: inactive
CG30127 (retired record) (GeneID 246473) #2 — outcome: inactive
Pkn + Tsen15 — outcome: inactive
DIP-epsilon (GeneID 7354433) #1 — outcome: inactive
DIP-epsilon (GeneID 7354433) #2 — outcome: inactive
CG11902 (GeneID 43070) — outcome: inactive
Cpr97Eb (GeneID 43259) — outcome: inactive
CG12374 (GeneID 36410) — outcome: inactive
CaMKII (GeneID 43828) — outcome: inactive
GM130 (GeneID 37524) — outcome: inactive
CG11192 (GeneID 37309) — outcome: inactive
scpr-B (GeneID 41357) — outcome: inactive
bero (GeneID 35355) — outcome: inactive
fzo (GeneID 42745) — outcome: inactive

A stretch taken from the entries so far:
Agxt (GeneID 31587) — outcome: inactive
CG5866 (GeneID 42097) — outcome: inactive
CG34195 (GeneID 37018) — outcome: inactive
MKP-4 (GeneID 32963) — outcome: inactive
ECSIT (GeneID 40732) — outcome: inactive
pins (GeneID 53569) — outcome: inactive
Sema2b (GeneID 246538) #1 — outcome: inactive
Sema2b (GeneID 246538) #2 — outcome: inactive
